Test results taken from paper PMC7819943, “Rice protein-binding microarrays: a tool to detect cis-acting elements near promoter regions in rice”.
Some of the results follow.

Each sequence was assayed against T1, OsSMF1 (Oryza sativa, UniProt Q6ZLB0 1-436) (assay: protein-binding microarray (RPBM); PBS, 2% BSA, 51.3 ng/ul salmon testes DNA, 50 uM zinc acetate, 200 nM TF, 25 C, 1 h; high values mean tight binding). Conditions: protein: recombinant; tags: N-terminal polyhistidine and DsRed monomer fusion (pET32a); chain copies: 2; label: CyDye5-dUTP incorporated in the synthesized complementary strand; 3' TTTTT single-stranded linker to array surface; dsDNA, one strand shown.
T1 sequence: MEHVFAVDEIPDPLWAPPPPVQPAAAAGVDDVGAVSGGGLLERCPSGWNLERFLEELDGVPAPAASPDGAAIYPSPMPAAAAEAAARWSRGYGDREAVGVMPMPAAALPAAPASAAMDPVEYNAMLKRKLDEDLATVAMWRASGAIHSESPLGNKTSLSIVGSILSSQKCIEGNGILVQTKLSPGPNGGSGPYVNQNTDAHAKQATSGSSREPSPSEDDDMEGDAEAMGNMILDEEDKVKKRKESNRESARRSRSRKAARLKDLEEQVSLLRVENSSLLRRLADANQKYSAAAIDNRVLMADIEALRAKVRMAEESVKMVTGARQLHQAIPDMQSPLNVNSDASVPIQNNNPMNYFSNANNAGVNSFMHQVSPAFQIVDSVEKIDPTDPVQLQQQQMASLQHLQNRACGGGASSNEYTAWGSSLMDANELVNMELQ
Procedure, shortened: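 Transcription factors were each fused at the N-terminus to a polyhistidine tag plus DsRed and expressed in E. coli BL21-CodonPlus before Ni–NTA purification. Binding to a double-stranded custom Agilent array was carried out with 200 nM protein at 25 °C for 1 h in PBS, 2% BSA, salmon testes DNA and 50 µM zinc acetate. The binding signal is per-feature fluorescence intensity, in arbitrary units, on an Axon 4000B scanner.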
“GAAACGATGGTTTGAGTACTGACTTGGCAATGCTGGTCATCGGAGTCACCTAGTGCAG” was tested, and the binding signal was 6280 fluorescence intensity (a.u.). With “GCCGGTCGCCGTCGCCGGCGCCGCCGCCACATCTGCTCTCCGGAGTCACCTAGTGCAG” the binding signal was 3950 fluorescence intensity (a.u.). With “TAAATATCAGATCAAAACACACTCATCCTACTAAAAGCCTCGGAGTCACCTAGTGCAG” the binding signal was 4630 fluorescence intensity (a.u.). “CGTGAGCGGGTGGTGGTGGTGATGGCGTTCGCGGTGGCGACGGAGTCACCTAGTGCAG” was tested, and the binding signal was 3520 fluorescence intensity (a.u.). “CACCGCGGTCTCCATCGTCTCCGGCGATGATGGCGGCGGCCGGAGTCACCTAGTGCAG” was tested, and the binding signal was 15600 fluorescence intensity (a.u.). With “TGGCCTGCCCCTCTCCAGCTCCTTCTCAGCGACGTGTGGCCGGAGTCACCTAGTGCAG” the binding signal was 3590 fluorescence intensity (a.u.). With “ATAATTCACGAACTGCTTCAGAGTCAGCAGCACGGATTTTCGGAGTCACCTAGTGCAG” the binding signal was 3230 fluorescence intensity (a.u.). In the case of “TTAATAGATGACGCCGTTAATCTTTAATATCACGTTTGACCGGAGTCACCTAGTGCAG”, the binding signal is reported as 3730 fluorescence intensity (a.u.). For “ACCAACAAGGTCGTCGCCGACGACGCCGACGCCGACGCCGCGGAGTCACCTAGTGCAG”, the binding signal was 27600 fluorescence intensity (a.u.). In the case of “AGACCCTTTACCAATGCAATCCTGACGTGCTTCACCTCACCGGAGTCACCTAGTGCAG”, the binding signal is reported as 4790 fluorescence intensity (a.u.). In the case of “TTCTATTTTCGCATGTGGCATTTGTGGCTGCTTGCTAGACCGGAGTCACCTAGTGCAG”, the binding signal is reported as 3690 fluorescence intensity (a.u.). With “CGCCGCCTCACCAGCGCCACCTCCACCTCCACCTACGTCTCGGAGTCACCTAGTGCAG” the binding signal was 3270 fluorescence intensity (a.u.). “ACAGAAAGTAAGAAAATTGGGCCCACATGTCATCCTGTCGCGGAGTCACCTAGTGCAG” was tested, and the binding signal was 3510 fluorescence intensity (a.u.). In the case of “CCGTACGAATTAGGATGCCACGTGGCATCCCTCTCCTCTGCGGAGTCACCTAGTGCAG”, the binding signal is reported as 27800 fluorescence intensity (a.u.). “AGAGAGCTACGTGCCGACATTTGGAGAAAGCGTGACGGGGCGGAGTCACCTAGTGCAG” was tested, and the binding signal was 5530 fluorescence intensity (a.u.). In the case of “AAGACACACGACTTAATACCGACATGGAAAGCTCAGCTGCCGGAGTCACCTAGTGCAG”, the binding signal is reported as 3460 fluorescence intensity (a.u.). “GCGCGCGTGCTGGCCTGCTGACGTGGTAACGGCACAAACGCGGAGTCACCTAGTGCAG” was tested, and the binding signal was 14000 fluorescence intensity (a.u.). In the case of “AAACGGCAGGCTGCCACGTCAGAGGCGTACGTGTGACGCTCGGAGTCACCTAGTGCAG”, the binding signal is reported as 18100 fluorescence intensity (a.u.). With “TACATTCCCGTGTTTGTCTGCTCCGGCTCCACCCGAACTCCGGAGTCACCTAGTGCAG” the binding signal was 3690 fluorescence intensity (a.u.). “ACTAGCGCCGACGCGGAACTTACGGCTTGGATTTGGGACTCGGAGTCACCTAGTGCAG” was tested, and the binding signal was 3500 fluorescence intensity (a.u.). For “ACAGGTGGGCCCCACAGTGACGTCACAGGAAGCTGACCCACGGAGTCACCTAGTGCAG”, the binding signal was 5670 fluorescence intensity (a.u.). With “AGTATATATGACACATCTCGAGTTAACCCTTAAAATTTCCCGGAGTCACCTAGTGCAG” the binding signal was 3240 fluorescence intensity (a.u.). For “CCTTCCAGCAATAAATCACCCTAGGGAAGAACGATTTATCCGGAGTCACCTAGTGCAG”, the binding signal was 4220 fluorescence intensity (a.u.). “TCGGCTCCCCATCGCCGCCGCGGAACAATCGCATCGCTACCGGAGTCACCTAGTGCAG” was tested, and the binding signal was 29400 fluorescence intensity (a.u.). For “ACTTGCACAGCTCAGCGGAAGGCTGCGTAGTCATCTCGTTCGGAGTCACCTAGTGCAG”, the binding signal was 4650 fluorescence intensity (a.u.). For “TCGTCCTTTCTCTCATGTCGTCATCCTCATCGACTCATCACGGAGTCACCTAGTGCAG”, the binding signal was 5630 fluorescence intensity (a.u.). For “CGCGTGCGTGTGGCGGCCGCCGCCACGGCAACGTGCTTCTCGGAGTCACCTAGTGCAG”, the binding signal was 3830 fluorescence intensity (a.u.). With “CTCAGATTCTCAGTGACAGACAGGATCAGCAAAACAAGCACGGAGTCACCTAGTGCAG” the binding signal was 4340 fluorescence intensity (a.u.). In the case of “TCCTCCCATCTCTCTCTCTTTTGCCCACACTCTTTTCACACGGAGTCACCTAGTGCAG”, the binding signal is reported as 5660 fluorescence intensity (a.u.). In the case of “CGTTGACATCGAGCACATCATCCAACTTCCATACCATCTGCGGAGTCACCTAGTGCAG”, the binding signal is reported as 3240 fluorescence intensity (a.u.). “GAAGTGGTTCTGCACTGTGATTTGAAGCCTAGCAACGTGCCGGAGTCACCTAGTGCAG” was tested, and the binding signal was 35800 fluorescence intensity (a.u.). For “TGCCACGCCAAGTCGCCACCCTTTGGTGTTCGTCCCGTTGCGGAGTCACCTAGTGCAG”, the binding signal was 3230 fluorescence intensity (a.u.). With “ATTTGCCAAACCACGTCCACCTGGCGCAGACACCACACCACGGAGTCACCTAGTGCAG” the binding signal was 4890 fluorescence intensity (a.u.). For “CGGCCGGCTAGCTTCTGATCTGGCCACTGCCACGACGCCACGGAGTCACCTAGTGCAG”, the binding signal was 6320 fluorescence intensity (a.u.). With “AATAGTAGGCTATAAGCCGGCTAAATGCTGAGGTGGAGGACGGAGTCACCTAGTGCAG” the binding signal was 5420 fluorescence intensity (a.u.). With “AATGTCATGTCTTTGTCATCACAAGCATAACTTTCAACCGCGGAGTCACCTAGTGCAG” the binding signal was 4570 fluorescence intensity (a.u.). For “CCGGCAAGTGTCTTGTTGTGACTGGACTGGATATTGTGAACGGAGTCACCTAGTGCAG”, the binding signal was 6440 fluorescence intensity (a.u.). “CTTTTATAATGTTTGTAAGACGTGGATCTGTATGTCAACTCGGAGTCACCTAGTGCAG” was tested, and the binding signal was 4380 fluorescence intensity (a.u.). For “TCGTCGTTAGTCCGTCCTCATCCGTGTGCCATTAACGGTGCGGAGTCACCTAGTGCAG”, the binding signal was 3160 fluorescence intensity (a.u.). In the case of “CCTCTCGAATCATAGATTCACTAAATAGAACATTCAAAATCGGAGTCACCTAGTGCAG”, the binding signal is reported as 3400 fluorescence intensity (a.u.). With “ATAAAGTTTATCATAACTTTCACAAACTATACATATATCACGGAGTCACCTAGTGCAG” the binding signal was 29800 fluorescence intensity (a.u.). For “CCACCCATCTCTTTCCATACAACCACTCCCTGGCTCCCTGCGGAGTCACCTAGTGCAG”, the binding signal was 3140 fluorescence intensity (a.u.).
